Hit rate of the full screen: of about 320,000 compounds, about 620 (0.19%) were called active. Inconclusive results, whose numbers are uncertain, are shown with a selection of clear calls. No stated cut-off is given here; in the data, active means activation above about 80%; inconclusive means between about 30% and that limit; inactive means weaker than that.
target: Transient receptor potential cation channel subfamily V member 1 (Homo sapiens) (UniProt Q8NER1); experiment: HTS Assay for Compounds that Act as Agonists of the Vanilloid Receptor 1; conditions: TRPV1-expressing cells, Fluo-8 calcium influx, agonist mode; at 8.33 µM, hits give high values; on activation: 0% is about no effect
Procedure, shortened: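 Cells expressing TRPV1 were dye-loaded with Fluo-8 and read kinetically: 10 s baseline, 3 min after compound (agonist portion), then 2 min after EC20 capsaicin (allosteric enhancer portion). Calcium-bound dye fluorescence at 480/520 nm.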

Amino acid sequences for entries named in this document (tags omitted).
UniProt Q8NER1, whole entry, looked up: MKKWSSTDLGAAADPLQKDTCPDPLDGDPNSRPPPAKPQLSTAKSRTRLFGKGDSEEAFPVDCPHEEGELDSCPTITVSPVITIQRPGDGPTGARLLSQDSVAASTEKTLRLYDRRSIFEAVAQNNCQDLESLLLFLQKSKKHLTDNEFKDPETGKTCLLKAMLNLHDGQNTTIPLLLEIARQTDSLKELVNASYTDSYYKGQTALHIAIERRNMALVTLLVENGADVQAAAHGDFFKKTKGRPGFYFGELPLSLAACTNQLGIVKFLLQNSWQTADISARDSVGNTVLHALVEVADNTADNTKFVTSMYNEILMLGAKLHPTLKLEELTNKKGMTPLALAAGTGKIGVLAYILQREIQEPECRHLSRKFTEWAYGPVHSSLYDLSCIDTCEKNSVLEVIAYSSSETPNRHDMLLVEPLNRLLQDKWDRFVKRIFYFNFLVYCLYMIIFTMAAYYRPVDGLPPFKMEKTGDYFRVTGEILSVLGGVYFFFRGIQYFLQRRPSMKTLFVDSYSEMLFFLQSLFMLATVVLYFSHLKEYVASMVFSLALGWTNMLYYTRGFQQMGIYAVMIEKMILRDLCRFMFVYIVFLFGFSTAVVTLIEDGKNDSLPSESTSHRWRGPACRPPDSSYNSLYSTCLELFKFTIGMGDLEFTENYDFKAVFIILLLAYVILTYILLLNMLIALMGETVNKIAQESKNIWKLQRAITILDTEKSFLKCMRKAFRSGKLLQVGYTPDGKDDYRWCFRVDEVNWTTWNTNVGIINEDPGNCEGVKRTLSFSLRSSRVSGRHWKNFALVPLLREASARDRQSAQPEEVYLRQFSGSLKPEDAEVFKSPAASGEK

| SMILES | activation |
| --- | --- |
| CCCC[C@]12Cc3c(ccc4ccccc34)C(O1)C1=C(O2)C(=O)c2ccccc2C1=O | inconclusive |
| CCc1ccc(OCc2n[nH]c(=S)n2C(C)CCCC(C)C)cc1 (centres undefined) | inactive: 22.5% |
| Fc1ccc(-c2nnc(-c3ccc(Cl)cc3Cl)o2)cc1 | inconclusive: 36.3% |
| N#Cc1c(NC(=O)c2ccco2)sc2c1CCC2 | inconclusive: 38.8% |
| CC1(C)Cc2nc3sc4c(N(CCO)CCO)nnnc4c3cc2CO1 | inactive: -2.67% |
| O=C1C=C(c2cc3ccccc3o2)C[C@@H](c2ccc(F)cc2)C1 | inconclusive: 35.8% |
| N#C/C(=C\c1ccc(-c2cccc([N+](=O)[O-])c2)o1)C(=O)N1CCOCC1 | inconclusive: 58% |
| COc1ccc(C)cc1N(CC(=O)Nc1cccnc1)S(=O)(=O)c1ccc(C)cc1 | inconclusive: 52.6% |
| COCC(C)n1c(SCC(=O)N2CCc3ccccc3C2)nc2ccccc2c1=O (centres undefined) | inconclusive: 50.4% |
| CC(OC(=O)c1ccccc1CCc1ccccc1)C(N)=O (centres undefined) | inconclusive: 56.1% |
| O=C(COC(=O)c1oc2ccccc2c1COc1ccccc1)NCCN1C(=O)CSC1=O | inactive: -0.34% |
| CCN(CC)c1ccc(NC(=O)c2cccc(C)c2)cc1S(=O)(=O)Nc1ccccc1OC | inactive: 6.12% |
| CCN(CC)c1ccc(/C=C(\C#N)C(=O)NCc2ccco2)cc1 | inconclusive: 50.6% |
| COc1ccc(-c2cc(-c3ccccc3)n3ncnc3n2)cc1 | inconclusive: 53% |
| Cc1ccc(SC(C)C(=O)NCCC2=CCCCC2)cc1 (centres undefined) | inconclusive: 31.1% |
| O=C(NCc1ccc2c(c1)OCO2)c1ccc(S(=O)(=O)N2CCOCC2)cc1 | inconclusive: 45.7% |
| CN(C)CC(C(=O)c1ccccc1)c1ccccc1 (centres undefined) | inactive: 4.85% |
| O=C(NCC1CCCO1)c1ccc(N2CCCCC2)c([N+](=O)[O-])c1 (centres undefined) | inconclusive: 56.2% |
| C/C(=N\NC(=O)c1ccccc1[N+](=O)[O-])c1ccc(Br)s1 | inactive: 17.8% |
| O=C(CSC1=NC2(CCCCC2)N=C1c1ccccc1)Nc1ccc2c(c1)OCCO2 | inconclusive: 51.5% |
| O=C(NC1CCCCC1)c1sc(N2CCOCC2)nc1-c1ccccc1 | inconclusive: 36.2% |
| Cc1ccc(CNC(=O)c2cc3c(=O)n4ccccc4nc3n(Cc3ccco3)c2=N)cc1 | inactive: 24.2% |
| NC(=O)C1CCN(C2=C(NS(=O)(=O)c3ccc(Br)cc3)C(=O)c3ccccc3C2=O)CC1 | inconclusive: 53.1% |
| Cc1nnc(-c2cccc(Br)c2)c2cn(-c3ccccc3)nc12 | inconclusive: 45.1% |

2 entries picked at random from the list so far:

| SMILES | activation |
| --- | --- |
| Cc1nnc(-c2cccc(Br)c2)c2cn(-c3ccccc3)nc12 | inconclusive: 45.1% |
| O=C1C=C(c2cc3ccccc3o2)C[C@@H](c2ccc(F)cc2)C1 | inconclusive: 35.8% |

From PubChem BioAssay AID540275 (National Center for Advancing Translational Sciences (NCATS), 2011)
